Source: article PMC11335277
Results are given in words; binding and its absence hold for the method and conditions named. Binding seen in cells or lysates may run through a third protein. Some results given as binding are weak or reduced against the parent protein; the word gives no strength. Where a sequence is shown, tags or fusion partners need not be part of it.

By UniProt entry, the sequences of proteins in these tests, tags left out.
UniProt Q0GNC1: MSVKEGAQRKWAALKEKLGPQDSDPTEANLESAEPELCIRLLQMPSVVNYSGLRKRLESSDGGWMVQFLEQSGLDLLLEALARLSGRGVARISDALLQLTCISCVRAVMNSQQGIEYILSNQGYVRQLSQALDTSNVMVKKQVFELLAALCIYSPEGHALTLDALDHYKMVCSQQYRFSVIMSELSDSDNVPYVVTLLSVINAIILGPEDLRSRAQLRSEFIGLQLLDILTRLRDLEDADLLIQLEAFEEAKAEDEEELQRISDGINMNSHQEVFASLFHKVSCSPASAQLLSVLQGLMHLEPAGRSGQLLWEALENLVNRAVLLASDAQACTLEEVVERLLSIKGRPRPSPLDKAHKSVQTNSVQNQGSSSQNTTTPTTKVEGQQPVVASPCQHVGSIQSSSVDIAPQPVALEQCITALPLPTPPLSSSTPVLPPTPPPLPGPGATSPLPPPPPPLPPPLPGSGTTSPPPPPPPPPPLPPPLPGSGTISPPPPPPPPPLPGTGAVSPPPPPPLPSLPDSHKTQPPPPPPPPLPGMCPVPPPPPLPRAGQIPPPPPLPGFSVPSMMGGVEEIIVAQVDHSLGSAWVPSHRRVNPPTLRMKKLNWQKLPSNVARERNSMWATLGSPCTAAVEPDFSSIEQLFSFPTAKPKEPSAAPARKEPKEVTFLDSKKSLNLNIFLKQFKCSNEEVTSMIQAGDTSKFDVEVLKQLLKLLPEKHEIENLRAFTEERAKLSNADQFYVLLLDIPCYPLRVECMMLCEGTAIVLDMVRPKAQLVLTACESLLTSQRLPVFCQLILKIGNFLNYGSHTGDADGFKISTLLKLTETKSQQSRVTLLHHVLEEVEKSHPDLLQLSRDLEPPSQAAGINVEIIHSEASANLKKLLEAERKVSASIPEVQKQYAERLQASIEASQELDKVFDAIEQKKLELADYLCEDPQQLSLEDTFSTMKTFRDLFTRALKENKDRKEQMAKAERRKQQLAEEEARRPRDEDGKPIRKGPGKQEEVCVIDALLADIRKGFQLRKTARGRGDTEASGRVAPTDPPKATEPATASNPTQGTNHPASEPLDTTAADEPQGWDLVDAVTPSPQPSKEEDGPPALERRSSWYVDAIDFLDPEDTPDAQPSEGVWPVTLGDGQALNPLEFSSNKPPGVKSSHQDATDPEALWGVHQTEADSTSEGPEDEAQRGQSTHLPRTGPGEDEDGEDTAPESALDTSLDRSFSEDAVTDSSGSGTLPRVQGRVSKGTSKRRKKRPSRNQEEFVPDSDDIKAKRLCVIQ

Biological target: GFP-tagged inverted formin 2 (INF2-GFP) (UniProt Q0GNC1)
Assay: co-IP; anti-GFP antibody (2 µg) on Protein G Dynabeads; lysates (1% Triton X-100) of HT-22 cells co-expressing INF2-GFP or GFP with myc-CAP1 or myc-CAP2 and dsRed; 2 h at 8 °C; washing buffer 20 mM Tris/HCl pH 8.0, 100 mM NaCl; immunoblots for myc and β-actin

binding	Binder
binds	myc-tagged cyclase-associated protein 1 (myc-CAP1) (protein, UniProt P40124 1-474) MADMQNLVERLERAVGRLEAVSHTSDMHCGYGDSPSKGAVPYVQAFDSLLANPVAEYLKMSKEIGGDVQKHAEMVHTGLKLERALLATASQCQQPAGNKLSDLLAPISEQIQEVITFREKNRGSKFFNHLSAVSESIQALGWVALAAKPGPFVKEMNDAAMFYTNRVLKEYRDVDKKHVDWVRAYLSIWTELQAYIKEFHTTGLAWSKTGPVAKELSGLPSGPSVGSGPPPPPPGPPPPPISTSSGSDDSASRSALFAQINQGESITHALKHVSDDMKTHKNPALKAQSGPVRSGPKPFSAPKPQTSPSPKPATKKEPALLELEGKKWRVENQENVSNLVIDDTELKQVAYIYKCVNTTLQIKGKINSITVDNCKKLGLVFDDVVGIVEIINSRDVKVQVMGKVPTISINKTDGCHAYLSKNSLDCEIVSAKSSEMNVLIPTEGGDFNEFPVPEQFKTLWNGQKLVTTVTEIAG
binds	myc-tagged cyclase-associated protein 2 (myc-CAP2) (protein, UniProt Q9CYT6 1-476) MTDMAGLMERLERAVIRLEQLSAGLDGPPRGCGEVNGVNGGVAPSVEAFDKLINSMVAEFLKNSRVLAGDVETHAEMVHGAFQAQRAFLLMVSQYQQPQENEVAVLLKPISEKIQEIQTFRERNRGSNMFNHLSAVSESIAALGWIAVSPKPGPYVKEMNDAATFYTNRVLKDYKHSDLRHVDWVRSYLNIWSELQAYIREHHTTGLTWSKTGPVASTASAFSILSSGPGLPPPPPPPPPPGPPPPFENEDKKEEPSPSRSALFAQLNQGEAITKGLRHVTDDKKTYKNPSLRAQGQIRSPTKTHTPSPTSPKSNSPQKHTPVLELEGKKWRVEYQEDRNDLVISETELKQVAYIFKCDKSTLQIKGKVNSITVDNCKKFGLVFDHVVGIVEVINSKDIQIQVMGRVPTISINKTEGCHLYLSEDALDCEIVSAKSSEMNVLVPQDDDYREFPIPEQFKTIWDGSKLVTEPAEIMA
